Values quoted from earlier work, collected in US10471080B2, “Use of trehalose for prevention of neural tube defects” (UNIVERSITY OF MARYLAND, BALTIMORE, priority 2012, dated 2019).
At least one compound was matched to its structure with a doubt left.

System: NTDs
Conditions: cited from earlier work

## Nc1nc(=O)c2nc(CNc3ccc(C(=O)N[C@@H](CCC(=O)O)C(=O)O)cc3)cnc2[nH]1 [Folate]
Animal models
  maternal diabetes-induced NTDs: reduce maternal diabetes-induced NTDs in animal models
humans, folate supplements
  NTDs prevented: about 70%
